# According to publication PMC4740242 (Cell reports, 2016):
# pIC50: −log10 of the molar value.
# System: Ba/F3 cells expressing T674I FIP1L1-PDGFRα
# Experiment: cells
# Details: Mus musculus, BaF3, 24 h, read-out: IC50 cell growth/viability
compound,measurement,value
Cc1ccc(NC(=O)c2ccc(CN3CCN(C)CC3)cc2)cc1Nc1nccc(-c2cccnc2)n1 [imatinib],pIC50,4.87
